Test results as given in PMC13554221.
Results are given in words; binding and its absence hold for the method and conditions named. In cells and extracts the contact can be indirect. Tags and fused reporters may be left off the sequences shown.

The chains behind the UniProt entries cited, without tags or fusion partners.
UniProt Q9CQJ4: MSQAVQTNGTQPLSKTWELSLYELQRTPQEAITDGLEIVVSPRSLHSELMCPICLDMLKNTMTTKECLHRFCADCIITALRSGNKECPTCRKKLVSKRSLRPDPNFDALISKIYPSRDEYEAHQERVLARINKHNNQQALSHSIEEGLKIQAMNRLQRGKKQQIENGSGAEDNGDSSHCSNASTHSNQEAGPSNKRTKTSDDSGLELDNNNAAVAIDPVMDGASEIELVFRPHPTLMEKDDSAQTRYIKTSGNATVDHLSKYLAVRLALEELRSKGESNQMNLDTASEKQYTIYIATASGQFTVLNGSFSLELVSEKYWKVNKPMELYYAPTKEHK

Target: T1, CTCF-AID-EGFP (mouse (endogenous in ESCs)) (UniProt Q61164)
T1 sequence: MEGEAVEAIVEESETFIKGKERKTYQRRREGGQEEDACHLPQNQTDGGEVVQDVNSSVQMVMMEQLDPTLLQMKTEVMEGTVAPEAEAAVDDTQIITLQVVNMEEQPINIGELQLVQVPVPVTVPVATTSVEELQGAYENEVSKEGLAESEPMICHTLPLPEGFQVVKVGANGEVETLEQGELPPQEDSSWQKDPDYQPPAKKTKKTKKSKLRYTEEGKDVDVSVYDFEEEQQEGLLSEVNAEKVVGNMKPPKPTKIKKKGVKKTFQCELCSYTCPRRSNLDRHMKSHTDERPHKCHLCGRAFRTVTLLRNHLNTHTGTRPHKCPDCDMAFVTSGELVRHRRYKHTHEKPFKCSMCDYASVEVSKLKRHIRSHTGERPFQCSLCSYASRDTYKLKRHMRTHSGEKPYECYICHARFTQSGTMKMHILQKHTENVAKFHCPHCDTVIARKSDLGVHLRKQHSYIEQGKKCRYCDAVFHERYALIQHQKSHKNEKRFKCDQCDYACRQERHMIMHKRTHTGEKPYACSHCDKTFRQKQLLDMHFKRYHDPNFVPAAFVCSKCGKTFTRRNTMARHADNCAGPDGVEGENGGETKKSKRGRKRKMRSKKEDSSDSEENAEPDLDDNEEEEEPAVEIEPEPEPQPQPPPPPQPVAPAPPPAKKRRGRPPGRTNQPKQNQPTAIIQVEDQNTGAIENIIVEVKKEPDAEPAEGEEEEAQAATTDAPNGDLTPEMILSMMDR
Assay: co-IP; CTCF antibody (10 µg) with whole-cell lysate of CTCF-AID-EGFP ESCs treated with IAA (auxin) or DMSO for 24 h; 2 h at 4 °C in Buffer A + Buffer BN, protein G beads overnight at 4 °C, five washes with Buffer BN (100 mM KCl, 0.1% IGEPAL), glycine elution; immunoblotting for CTCF and RING1B

binding: no binding
Substance: Ring1b (from UniProt Q9CQJ4 1-336)
